Earlier results in patent US7094600B2, “Screen for sodium channel modulators” (The Research Foundation of State University of New York, priority 2003, dated 2006).
Like-named read-outs stand apart in the source and are kept apart here. For at least one compound, name, drawing or mass did not settle the structure. Some results were stated once for a whole list of compounds, not compound by compound.

What was measured:
[1] = tested on: IFM/QQQ mutant channels; settings: cited from earlier work
[2] = tested on: Na+ channels; settings: cited from earlier work

SMILES | open-channel affinity less than the inactivated-channel affinity ([1]; IFM/QQQ mutant channels) | difference between the resting and inactivated block [2] [fold] | open-channel affinity less than the inactivated-channel affinity [1]
COC(=O)[C@H]1[C@@H](OC(=O)c2ccccc2)C[C@@H]2CC[C@H]1N2C [cocaine] | 3- to 10 fold | 28 | 
CCN(CC)CC(=O)Nc1c(C)cccc1C [lidocaine] |  |  | 3- to 10 fold
